Experimental data published in the supplement of paper PMC11732987, “Enantioselective OTUD7B fragment discovery through chemoproteomics screening and high-throughput optimisation” (Communications Chemistry, 2025).
The other results are listed elsewhere or left out. The data scatter; read single values as rough.

Sequences of proteins named here, by UniProt entry; tags and fusion partners are left off. A change or cut given only in a name is not applied to a line headed by its entry.
UniProt Q6PI48: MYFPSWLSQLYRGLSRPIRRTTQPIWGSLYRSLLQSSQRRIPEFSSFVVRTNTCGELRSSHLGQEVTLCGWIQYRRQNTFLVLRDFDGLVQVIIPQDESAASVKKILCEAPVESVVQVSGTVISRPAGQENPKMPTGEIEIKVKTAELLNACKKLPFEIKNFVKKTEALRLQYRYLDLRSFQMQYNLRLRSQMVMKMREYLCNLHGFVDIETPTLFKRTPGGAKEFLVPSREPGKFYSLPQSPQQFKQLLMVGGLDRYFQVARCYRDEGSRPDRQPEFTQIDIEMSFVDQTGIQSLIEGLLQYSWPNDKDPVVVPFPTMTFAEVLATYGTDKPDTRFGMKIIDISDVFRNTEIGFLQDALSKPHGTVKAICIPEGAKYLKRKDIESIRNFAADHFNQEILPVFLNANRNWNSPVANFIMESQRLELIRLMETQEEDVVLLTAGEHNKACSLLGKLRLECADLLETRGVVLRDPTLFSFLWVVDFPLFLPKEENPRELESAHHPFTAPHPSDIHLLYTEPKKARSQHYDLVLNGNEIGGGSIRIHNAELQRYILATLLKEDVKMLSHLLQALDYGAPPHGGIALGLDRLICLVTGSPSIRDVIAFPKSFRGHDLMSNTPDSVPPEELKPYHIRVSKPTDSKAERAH

target: T1, DARS2 C108 (UniProt Q6PI48); assay: log2 mean competition ratio of IA-DTB cysteine labelling (DMSO/compound) (log2 ratio); higher = stronger cysteine engagement by compound; settings: 50 µM; treatment time: 4 h; cell line lysate: HEK293T
T1 sequence (whole entry): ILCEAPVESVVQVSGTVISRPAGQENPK
Protocol: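 IA-DTB competitive cysteine chemoproteomics in HEK293T RIPA lysate. Lysates were treated with compound 29 or 30 at 50 or 200 µM for 4 h, then IA-DTB (500 µM, 1 h), trypsin-digested, NeutrAvidin-enriched and analysed by diaPASEF. Competition ratio = intensity DMSO / intensity compound (n=4 treated, n=64 DMSO); binding: mean log2 CR ≥ 1 and p ≤ 0.05 plus QC filters. Target is the cysteine site.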

Structure (SMILES)	log2 mean competition ratio
O=C(CCl)N[C@H]1CCCc2ccccc21	-0.211
O=C(CCl)N[C@@H]1CCCc2ccccc21	-0.0321

same assay, conditions: 200 µM; treatment time: 4 h; cell line lysate: HEK293T

Structure (SMILES)	log2 mean competition ratio
O=C(CCl)N[C@H]1CCCc2ccccc21	-0.464
O=C(CCl)N[C@@H]1CCCc2ccccc21	-0.0875
